Data reported in the supplement of paper PMC12889115.
This is one part of the list. These are raw signals, not scaled to a control.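 In the initial screen, polymyxin B was used at a concentration that permeabilizes Salmonella's outer membrane but not its inner membrane. Maximum growth was set by DMSO wells with or without polymyxin B. Since plates varied, data were ranked per plate, and compounds giving the lowest OD600 advanced as hits.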

Tested on: Salmonella enterica serovar Typhimurium SL1344
Assay: bacterial growth OD600 after 18 h with compound and polymyxin B; higher = more bacterial growth (less inhibition)
Conditions: 50 µM, Mueller-Hinton broth

SMILES: COc1ccc(C(=O)N2CCCC2)c(OC2CCN(Cc3ccc(F)cc3)CC2)c1
- bacterial growth OD600 (polymyxin B 0.75 µg/mL): 0.692

SMILES: CCOC(=O)C1(Cc2cccc(Cl)c2)CCCN(C(=O)NC(C)C)C1 (stereo not given)
- bacterial growth OD600 (polymyxin B 1 µg/mL): 0.778

SMILES: Cc1n[nH]c(C)c1S(=O)(=O)N1CCC(C2CCN(CC(C)C)CC2)C1 (stereo not given)
- bacterial growth OD600 (polymyxin B 0.75 µg/mL): 0.897

SMILES: Cc1cnc(CNc2ccc(-c3nc(C(C)C)no3)cn2)cn1
- bacterial growth OD600 (polymyxin B 1 µg/mL): 0.982

SMILES: CN(C(=O)CCN1Cc2ccccc2C1=O)C1CCCN(CCc2ccccc2)C1 (stereo not given)
- bacterial growth OD600 (polymyxin B 1 µg/mL): 0.967

SMILES: O=C(c1cccc(Cl)c1)N1CCC2(CCCN(CC3CC3)C2=O)C1 (stereo not given)
- bacterial growth OD600 (polymyxin B 1 µg/mL): 0.923

SMILES: CCN(Cc1nc2ccccc2nc1C)CC1CCCN(CCc2cccc(OC)c2)C1 (stereo not given)
- bacterial growth OD600 (polymyxin B 0.75 µg/mL): 0.969

SMILES: Cn1c(C2CCC2)nc2cc(C(=O)NC3Cc4ccccc4C3)cc(NC(=O)C3CCCO3)c21 (stereo not given)
- bacterial growth OD600 (polymyxin B 0.75 µg/mL): 0.851

SMILES: CSCC(=O)N1CCC2(CCCN(Cc3ccc(F)cc3)C2=O)C1 (stereo not given)
- bacterial growth OD600 (polymyxin B 1 µg/mL): 0.959

SMILES: CN(CCc1ccccc1)C1CCCN(Cc2ccc(O)c(Cl)c2)C1 (stereo not given)
- bacterial growth OD600 (polymyxin B 1 µg/mL): 0.893

SMILES: CCN(Cc1ccccc1)C(=O)c1ccc(OC2CCN(C(=O)C3CC3)CC2)cc1
- bacterial growth OD600 (polymyxin B 1 µg/mL): 0.895

SMILES: CC(C)C(=O)N1CCCC(N2CCN(c3cccc(C(F)(F)F)c3)CC2)C1 (stereo not given)
- bacterial growth OD600 (polymyxin B 1 µg/mL): 0.926

SMILES: CCn1nc(C)c(CN2CCC(C(Cc3ccccc3Cl)N(C)C(=O)c3ccco3)CC2)c1C (stereo not given)
- bacterial growth OD600 (polymyxin B 0.75 µg/mL): 0.838

SMILES: Cc1ccc(CCNC(=O)C2CCC(=O)N(CC3CCCCC3)C2)s1 (stereo not given)
- bacterial growth OD600 (polymyxin B 1 µg/mL): 0.83

SMILES: Cc1oc(-c2cc(F)ccc2F)nc1CN1CCN(c2ccccc2)CC1C (stereo not given)
- bacterial growth OD600 (polymyxin B 1 µg/mL): 0.824

SMILES: O=C(C1CC12CCCCC2)N1CCc2onc(-c3ccccc3F)c2C1 (stereo not given)
- bacterial growth OD600 (polymyxin B 0.75 µg/mL): -0.001

SMILES: COc1cccc(N2CCN(Cc3nc(-c4cc(F)cc(F)c4)oc3C)CC2=O)c1
- bacterial growth OD600 (polymyxin B 1 µg/mL): 0.727

SMILES: O=C(CCc1ccco1)NC1CC(=O)N(CCc2ccccc2)C1 (stereo not given)
- bacterial growth OD600 (polymyxin B 1 µg/mL): 1.13

SMILES: COc1ccc(OC)c(-c2cc(Cl)c3c(c2)CC(CNC(=O)/C=C/c2cccnc2)O3)c1 (stereo not given)
- bacterial growth OD600 (polymyxin B 0.75 µg/mL): 0.013

SMILES: Cc1ccccc1C(=O)N1CCC(C2(c3ccccn3)NC(=O)N(CCc3cccs3)C2=O)CC1 (stereo not given)
- bacterial growth OD600 (polymyxin B 0.75 µg/mL): 0.813
